# The campaign covered roughly 360,000 compounds. About 10,000 (2.8%) were called active. The shares of active, inactive and inconclusive entries below differ from those in the screen. The call rests on the fitted dose curve; in most records, active means well fitted inhibition curve with a large enough effect; inconclusive means small, poorly fitted or top-dose-only effect; inactive means flat fitted curve, though single readings scatter. A potency beside an inconclusive call is a rough fit, not a confirmed value.
# Amino acid sequences for entries named in this document (tags omitted).
# UniProt P53350, whole entry, looked up: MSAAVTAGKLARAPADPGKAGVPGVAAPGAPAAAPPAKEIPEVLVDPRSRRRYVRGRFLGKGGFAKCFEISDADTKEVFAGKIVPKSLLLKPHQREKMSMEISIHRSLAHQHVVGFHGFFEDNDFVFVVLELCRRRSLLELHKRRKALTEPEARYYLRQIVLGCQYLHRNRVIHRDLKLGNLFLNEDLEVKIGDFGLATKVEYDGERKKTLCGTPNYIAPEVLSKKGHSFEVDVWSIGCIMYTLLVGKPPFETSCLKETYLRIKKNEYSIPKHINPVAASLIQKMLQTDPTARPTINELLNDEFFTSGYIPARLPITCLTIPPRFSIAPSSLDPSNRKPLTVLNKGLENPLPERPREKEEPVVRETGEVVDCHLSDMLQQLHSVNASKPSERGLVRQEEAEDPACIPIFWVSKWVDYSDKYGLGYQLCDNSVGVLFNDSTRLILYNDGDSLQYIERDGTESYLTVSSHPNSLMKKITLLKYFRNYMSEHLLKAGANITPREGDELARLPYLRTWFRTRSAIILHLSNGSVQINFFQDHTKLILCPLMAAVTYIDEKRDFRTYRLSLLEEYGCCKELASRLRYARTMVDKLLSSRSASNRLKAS
# Target: Serine/threonine-protein kinase PLK1 (Homo sapiens) (UniProt P53350)
# Experiment: qHTS for Inhibitors of PLK1-PDB (polo-like kinase 1 - polo-box domain): Primary Screen; further: nearly all actives have a fitted effect of over 65% in size; on max response, negative = inhibition: series mostly up to about 57 µM
# Conditions: Plk1 PBD binding of FITC phosphopeptide, fluorescence polarization
# On the % scale 0 is the no-effect control and ±100 the full control effect; potency means the concentration at half of the fitted maximal effect.
SMILES,"max response, negative = inhibition",Potency
CCCCC#Cc1ccccc1CC(=O)Nc1ccccc1,inactive: 5.3%,–
O=C(OCc1cc(=O)n2c(n1)sc1ccccc12)c1cccc(O)c1,inconclusive: -33.9% [inhibitor],–
Cc1cc(=O)oc2c(O)c(O)ccc12,–,"inconclusive: 29.9 µM [inhibitor, single point]"
COc1ccc(-c2nnc(SCC#CCO)o2)cc1OC,–,"inconclusive: 23.8 µM [inhibitor, single point]"
Cc1cc2oc(=O)cc(CN3CCN(Cc4ccccc4)CC3)c2cc1Cl,inactive: -17.1%,–
C=CCN(C(=O)CCS(=O)(=O)c1cccc2nsnc12)c1ccccc1,–,"inconclusive: 26.7 µM [inhibitor, partial curve]"
COc1cc(/C=C2\SC(=O)N(c3ccc(Cl)cc3)C2=O)cc([N+](=O)[O-])c1O,inconclusive: -32.6% [inhibitor],–
C=CCOc1ccc(C(c2c(O)nc(SC)[nH]c2=O)c2c(O)nc(SC)[nH]c2=O)cc1,–,active: 11.9 µM
CN1Cc2sc(NC(=S)NC(=O)c3ccccc3)c(C#N)c2CC1(C)C,–,active: 13.4 µM
CCOc1cc(/C=C2\NC(=S)N(C)C2=O)ccc1OCc1ccc(C(=O)O)cc1,inconclusive: -34.3% [inhibitor],–
Cc1ccc(NCN2C(=O)C3C4C=CC(C4)C3C2=O)cc1 (configuration not stated),–,active: 3.36 µM
N#CC1=C(S)N(c2ccccc2)C(c2cccs2)NC1=O (configuration not stated),–,"inconclusive: 26.7 µM [inhibitor, partial curve]"
Cc1c(NC(=O)OCCNC(=O)Nc2ccccc2)sc(=S)n1C,–,"inconclusive: 23.8 µM [inhibitor, partial curve]"
CCOc1ccccc1NC(=O)COC(=O)CN(C)S(=O)(=O)c1ccc(C)cc1,–,active: 26.7 µM
Cc1cc(C)n2c(SC/C(O)=C(\C#N)c3nc4ccccc4[nH]3)nnc2n1,–,"inconclusive: 26.7 µM [inhibitor, partial curve]"
COc1cccc(CN2CCNC(=O)C2CC(=O)N(C)Cc2cnccn2)c1OC (configuration not stated),–,"inconclusive: 37.7 µM [inhibitor, single point]"
O=C(c1ccc(F)cc1F)N1CCCC(c2nc(-c3ccc(F)cc3)no2)C1 (configuration not stated),inactive: -11%,–
O=C(c1cc(=O)[nH]c2ccccc12)N(Cc1nnc(-c2ccccc2Cl)o1)C1CC1,inactive: 0.709%,–
COc1cc(-c2nnc(SCC(=O)N3CCCC3)o2)cc(OC)c1OC,–,"inconclusive: 18.9 µM [inhibitor, partial curve]"
CC(=O)N1c2ccc(S(=O)(=O)N(C)C3CCCCC3)cc2CC1C (configuration not stated),inactive: -11%,–
O=C(NC1=CC(=O)c2ccccc2C1=O)c1ccccc1,–,"inconclusive: 23.8 µM [inhibitor, partial curve]"
CC(=O)N1CCN(C(=S)c2ccc(-c3ccc(Cl)cc3)o2)CC1,–,active: 4.74 µM
O=S(=O)(/C=C/c1ccccc1)NC1CCCCCC1,–,active: 26.7 µM

SMILES,"max response, negative = inhibition",Potency
Cc1occc1-c1nnc(SCC(=O)NCc2ccco2)n1CC(C)C,–,"inconclusive: 42.3 µM [inhibitor, single point]"
C=CCNc1nc(-c2cccs2)c(CC(=O)O)s1,–,"inconclusive: 26.7 µM [inhibitor, single point]"
O=C(/C=C/c1ccc2c(c1)S(=O)(=O)N(Cc1ccccc1)[C@H]2CC(=O)N1CCOCC1)N1CCOCC1,inconclusive: -31.2% [inhibitor],–
COc1ccc(Cc2[nH]n3c(=O)c(Cl)c(C)nc3c2-c2ccccc2)cc1,–,"inconclusive: 26.7 µM [inhibitor, single point]"
COc1ccccc1CNc1ccc([N+](=O)[O-])cc1C,–,"inconclusive: 29.9 µM [inhibitor, single point]"
CCc1ccccc1S(=O)(=O)Cc1ccc(C(=O)NCc2cccs2)o1,–,"inconclusive: 18.9 µM [inhibitor, single point]"
Cc1cc2c(SCC(=O)NC3CCCC3)ncnc2s1,inactive: -8.33%,–
Cc1ccc(NC(=S)NCc2ccccc2)cc1[N+](=O)[O-],inactive: -4.24%,–
CC1CCCN(C(=O)COc2ccc3c(c2)OCO3)C1 (configuration not stated),inactive: -11.9%,–
Cc1ccc(S(=O)(=O)NC(=O)Cn2nnc(-c3ccccc3)c2COc2ccc3ccccc3c2)cc1,–,"inconclusive: 23.8 µM [inhibitor, single point]"
N#C/C(C(=O)NCc1ccccc1)=C1\SC(CCO)C(=O)N1c1ccccc1 (configuration not stated),–,"inconclusive: 37.7 µM [inhibitor, single point]"
Cc1cccc(NC(=O)CN2C(=O)S/C(=C\c3ccc(-c4cccc(C(=O)O)c4C)o3)C2=O)c1,–,"inconclusive: 23.8 µM [inhibitor, single point]"
C=C(C)CSc1nc2sc3c(c2c(=O)n1-c1ccccc1)CCN(C)C3,–,"inconclusive: 33.6 µM [inhibitor, partial curve]"
COc1ccc(C(=O)COC(=O)CCN2C(=O)C3C4C=CC(C5CC45)C3C2=O)cc1 (configuration not stated),–,"inconclusive: 29.9 µM [inhibitor, single point]"
Cc1ccc(NC(=O)c2sc3ncn(CC(=O)N4CCN(c5ccccn5)CC4)c(=O)c3c2C)cc1F,–,"inconclusive: 23.8 µM [inhibitor, partial curve]"
COc1ccc(C2C3=C(CC(C)(C)CC3=O)N(C)C3=C2C(=O)CC(C)(C)C3)cc1OC,inconclusive: -31.2% [inhibitor],–
O=C(N/N=C/c1cc(Cl)ccc1O)c1ccccc1Br,inactive: -18.1%,–
CC[C@@H](C(=O)[C@@H](C)[C@@H](O)[C@H](C)CCc1ccc(C)c(O)c1C(=O)O)[C@H]1O[C@](CC)([C@H]2CC[C@](O)(CC)[C@H](C)O2)C[C@@H]1C,–,"inconclusive: 29.9 µM [inhibitor, single point]"
N#Cc1cc(Cl)c(NCC2CCCO2)cc1C#N (configuration not stated),inactive: -4.24%,–
N#CC(C#N)=Cc1ccc(NC(=O)c2ccc(Br)cc2)cc1,inactive: -19.2%,–
Cc1cc(Br)cn2c(Cc3ccsc3)c(-c3ccc(Cl)cc3)nc12,–,"inconclusive: 26.7 µM [inhibitor, single point]"
O=C(NCCc1ccccc1)c1ccc2nc(-c3ccco3)c(-c3ccco3)nc2c1,–,"inconclusive: 29.9 µM [inhibitor, partial curve]"
N=C1C(c2nc3ccccc3s2)=C(O)CN1NC(=O)c1ccccc1[N+](=O)[O-],–,"inconclusive: 21.2 µM [inhibitor, partial curve]"

# Single records (already shown). Order of values: max response, negative = inhibition	Potency
# `O=C(OCc1cc(=O)n2c(n1)sc1ccccc12)c1cccc(O)c1` as listed: inconclusive: -33.9% [inhibitor]	–
# `Cc1ccc(S(=O)(=O)NC(=O)Cn2nnc(-c3ccccc3)c2COc2ccc3ccccc3c2)cc1` as listed: –	inconclusive: 23.8 µM [inhibitor, single point]
# `Cc1cc2oc(=O)cc(CN3CCN(Cc4ccccc4)CC3)c2cc1Cl` as listed: inactive: -17.1%	–
# `CC(=O)N1CCN(C(=S)c2ccc(-c3ccc(Cl)cc3)o2)CC1` as listed: –	active: 4.74 µM

# Next part.

SMILES,"max response, negative = inhibition",Potency
COc1cccc(C(=O)Nc2nc3ccc(S(C)(=O)=O)cc3s2)c1,–,"inconclusive: 23.8 µM [inhibitor, partial curve]"
Cc1cc(SCC(=O)N2CCCC2=O)nc2ccccc12,–,"inconclusive: 21.2 µM [inhibitor, single point]"
Cc1ccc(CSc2nnc3c(n2)OC2(Nc4ccccc4-3)C(=O)Nc3ccc(F)cc32)cc1 (configuration not stated),–,"inconclusive: 33.6 µM [inhibitor, partial curve]"
COc1ccc(C(C(=O)NC2CCCCC2)N(C(=O)Cc2c[nH]c3ccccc23)c2ccccc2C)cc1OC (configuration not stated),inactive: -15.4%,–
COc1ccc(CC2(CO)CCN(Cc3ccc(NC(C)=O)cc3)CC2)cc1,–,"inconclusive: 33.6 µM [inhibitor, single point]"
CCOC(=O)[C@]12CCC=C1N(Cc1ccc3c(c1)OCO3)C(=O)[C@H](CC(=O)NCc1cccc(C(F)(F)F)c1)C2,inactive: -2.38%,–
COc1ccc(C(=O)NC=C2C(=O)OC(C)(C)OC2=O)cc1,–,"inconclusive: 37.7 µM [inhibitor, single point]"
Cc1ccc2occ(-c3nn[nH]n3)c(=O)c2c1,inconclusive: -34.5% [inhibitor],–
CC1(C(=O)NC(=S)N(Cc2ccccc2)c2ccccn2)CC1(Cl)Cl (configuration not stated),–,"inconclusive: 10.6 µM [inhibitor, partial curve]"
CC(=O)c1cccc(NC(=S)N2CCN(S(=O)(=O)c3ccccc3)CC2)c1,–,"inconclusive: 18.9 µM [inhibitor, partial curve]"
COc1ccc(CCNC(=O)CCCOc2ccc(C)cc2)cc1OC,–,active: 23.8 µM
O=C(Nc1cc(Cl)ccc1C(=O)O)c1ccc(CN2C(=O)c3ccccc3C2=O)cc1,–,"inconclusive: 23.8 µM [inhibitor, single point]"
COC(=O)c1c(NC(=S)Nc2ccc(CC(=O)O)cc2)sc(C)c1C,–,"inconclusive: 37.7 µM [inhibitor, single point]"
CCOc1cccc(C(=O)NC(=S)Nc2cccc(NC(=O)c3ccccc3Cl)c2)c1,inactive: 0.949%,–
NS(=O)(=O)c1ccc(Nc2nc3ccccc3nc2NS(=O)(=O)c2cccc([N+](=O)[O-])c2)cc1,–,"inconclusive: 29.9 µM [inhibitor, single point]"
CC1CCCN(S(=O)(=O)c2ccc(S(=O)(=O)NC(C)c3cccs3)cc2)C1 (configuration not stated),–,"inconclusive: 37.7 µM [inhibitor, single point]"
Cc1cc(-n2c(C)cc(C(=O)CSc3ccc4c(c3)OCCO4)c2C)no1,–,"inconclusive: 11.9 µM [inhibitor, partial curve, poor fit]"
O=C(NC1CCCCC1)c1ccccc1NC(=O)C1CC(=O)N(c2ccc(Cl)cc2)C1 (configuration not stated),–,"inconclusive: 0.0134 µM [inhibitor, full curve, poor fit]"
O=C(NCCSCc1ccco1)Nc1cccc(Cl)c1,inactive: -10.9%,–
CCOc1ccc(NC(=O)N2CCN(S(C)(=O)=O)CC2)cc1,inconclusive: -4.54% [inhibitor],–
CCCCN1CCCCC1C(=O)Nc1c(C)cccc1C (configuration not stated),–,"inconclusive: 29.9 µM [inhibitor, partial curve]"
